Measured values reported in patent US20080009448A1, “Peptide Derivative” (priority 2006, published 2008).

Assays:
inflammatory pain model = test: Rheumatoid arthritis / inflammatory pain model (CFA), Von Frey filament method; assay type: in vivo, mouse; conditions: for total AUC value / unit-time AUC value: 100 mg/Kg orally
Procedure: Experimental animal, male ddy type mice (Nihon SLC), weighing the body weight in the range of 15 to 20 g, were used for the studies. The animals had been kept under constant conditions (room temperature 23±1° C., humidity 52±2%, 12 hours light-and-dark cycle having light time 7:00 to 19:00 and dark time 19:00 to 7:00) until used for an experiment. The animals were fed the mouse solid diet (F2, Funabashi farm. Funabashi, Japan) with unrestricted tap water intake, and kept in captivity for at least more than two days in a laboratory.
A mouse was firmly fixed without anesthesia and 25 μL of Complete Freund's Adjuvant (CFA) using a number 30 guage needle (Termo) was subcutaneously administered into the dorsum of left hind foot to provide an inflammatory pain model. The model was kept under the conditions noted above until used for the test.
Measurement of anti-nociceptive activity on the inflammatory pain model was conducted according to Von Fray filament method as well as on never damaged model 5 days after CFA administration. The drugs were orally administered.
The anti-nociceptive activity is represented as a unit AUC value (AUC/min) which is the total AUC value or AUC divided by the measurement time and compared to study. ED50 of the anti-nociceptive activity was calculated by reducing the measurement value to a percentage of the upper limit which was set as 2.0 for the unit AUC.

[1] = system: MSU induced knee osteoarthritis pain; test: MSU induced knee osteoarthritis pain model, hind leg paw-pressure ratio; assay type: in vivo; conditions: rat, oral, range in parentheses, read-out: ED50 of AUCs
Procedure: Experimental animal, male SD type rats, weighing the body weight in the range of 170 to 190 g, were used for the studies. The animals had been kept under constant conditions (room temperature 23±1° C., humidity 52±2%, 12 hours light-and-dark cycle having light time 7:00 to 19:00 and dark time 19:00 to 7:00) until used for an experiment. The animals were fed the mouse solid diet (F2, Funabashi farm. Funabashi, Japan) with unrestricted tap water intake, and kept in captivity for at least more than two days in a laboratory.
Any test drugs were dissolved in Ringer's solution (Fuso Yakuhin) to be used. […]
Pressures to both hind leg paw were measured using a paw-pressure measurement apparatus and recorded. […] Calculated paw-pressure ratio (ppr) is a value calculated by dividing the pressure on the left hind leg by the pressure on the right hind leg according to the measured pressures on both hind legs.
The anti-nociceptive effect was evaluated quantitatively by calculating % MPE (% of maximum possible effect) according to the following formula. […]
In the formula, ppr 0 and ppr 1 are respective paw-pressure ratios on both hind legs before and after administration. ED50 value of anti-nociceptive activity was calculated using GraphPad Prism data-graph processing software version 4.0, San Diego, Calif., USA. […]

Question: Which “total AUC value” (inflammatory pain model; CFA administered foot) does the source give for `CN1CC[C@]23c4c5ccc(O)c4O[C@H]2[C@@H](O)C=C[C@H]3[C@H]1C5` [Morphine] here?
Answer: 328

Question: What about the “unit-time AUC value” (inflammatory pain model; CFA administered foot) of the same compound?
Answer: 0.910 AUC/min

Question: And the “total AUC value” (inflammatory pain model; CFA non-administered foot)?
Answer: 556

Question: What about the “unit-time AUC value” (inflammatory pain model; CFA non-administered foot) of the same compound?
Answer: 1.545 AUC/min

Question: What about the “total AUC value and unit-time AUC value of the CFA administered foot as part of those of the CFA non-administered foot” value (inflammatory pain model; mice, CFA model, oral) of the same compound?
Answer: approximately 60%

Question: What about the ED50 [1] of the same compound?
Answer: 86.4 mg/kg
